From doi:10.1101/2025.05.11.653231
No constants are given. Whether binding was seen depends on the method and setting. Binding seen in cells or lysates may run through a third protein. Some binding calls cover weakened binding; strength is not graded here. For part of these data: Tags and fused reporters may be left off the sequences shown.

The chains behind the UniProt entries cited, without tags or fusion partners.
UniProt P84078: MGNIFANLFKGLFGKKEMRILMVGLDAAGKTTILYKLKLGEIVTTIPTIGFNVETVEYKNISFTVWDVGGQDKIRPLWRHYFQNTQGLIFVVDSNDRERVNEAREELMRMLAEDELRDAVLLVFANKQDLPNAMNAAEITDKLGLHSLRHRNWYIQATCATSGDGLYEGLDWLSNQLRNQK
UniProt P84077: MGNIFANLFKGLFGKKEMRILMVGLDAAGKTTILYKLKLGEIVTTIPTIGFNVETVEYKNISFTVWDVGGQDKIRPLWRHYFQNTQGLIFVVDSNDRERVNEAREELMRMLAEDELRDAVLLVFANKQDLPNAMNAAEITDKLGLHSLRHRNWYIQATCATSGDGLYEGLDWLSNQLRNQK
UniProt Q61768: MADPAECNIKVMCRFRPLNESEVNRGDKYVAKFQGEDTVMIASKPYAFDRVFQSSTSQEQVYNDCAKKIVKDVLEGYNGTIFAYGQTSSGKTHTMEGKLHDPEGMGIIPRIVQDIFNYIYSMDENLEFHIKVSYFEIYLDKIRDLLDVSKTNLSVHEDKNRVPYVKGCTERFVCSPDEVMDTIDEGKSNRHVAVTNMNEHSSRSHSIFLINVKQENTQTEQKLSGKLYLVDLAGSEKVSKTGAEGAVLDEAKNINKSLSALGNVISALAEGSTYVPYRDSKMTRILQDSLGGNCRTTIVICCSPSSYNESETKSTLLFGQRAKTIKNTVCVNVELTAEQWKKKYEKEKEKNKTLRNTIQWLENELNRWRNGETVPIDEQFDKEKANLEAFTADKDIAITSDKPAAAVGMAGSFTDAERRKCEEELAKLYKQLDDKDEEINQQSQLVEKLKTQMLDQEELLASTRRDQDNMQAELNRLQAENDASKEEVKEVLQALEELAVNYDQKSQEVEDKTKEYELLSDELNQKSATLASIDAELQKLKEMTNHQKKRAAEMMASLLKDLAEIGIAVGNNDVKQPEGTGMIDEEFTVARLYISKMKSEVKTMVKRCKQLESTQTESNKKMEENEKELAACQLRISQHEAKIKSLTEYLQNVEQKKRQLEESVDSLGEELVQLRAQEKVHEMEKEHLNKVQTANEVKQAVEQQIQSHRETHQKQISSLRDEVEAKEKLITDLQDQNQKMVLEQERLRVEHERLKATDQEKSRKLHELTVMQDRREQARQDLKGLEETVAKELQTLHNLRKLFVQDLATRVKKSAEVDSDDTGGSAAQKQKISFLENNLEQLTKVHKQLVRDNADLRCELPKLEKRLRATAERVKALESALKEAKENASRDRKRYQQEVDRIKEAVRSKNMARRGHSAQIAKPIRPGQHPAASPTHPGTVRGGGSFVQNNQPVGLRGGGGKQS

What was measured:
[1] = molecular target: T1, glutathione S-transferase (GST)-tagged Golgi-localized γ-ear containing Arf-binding protein 3 (GGA3) fusion protein (UniProt Q9NZ52); test: pull-down
T1 sequence: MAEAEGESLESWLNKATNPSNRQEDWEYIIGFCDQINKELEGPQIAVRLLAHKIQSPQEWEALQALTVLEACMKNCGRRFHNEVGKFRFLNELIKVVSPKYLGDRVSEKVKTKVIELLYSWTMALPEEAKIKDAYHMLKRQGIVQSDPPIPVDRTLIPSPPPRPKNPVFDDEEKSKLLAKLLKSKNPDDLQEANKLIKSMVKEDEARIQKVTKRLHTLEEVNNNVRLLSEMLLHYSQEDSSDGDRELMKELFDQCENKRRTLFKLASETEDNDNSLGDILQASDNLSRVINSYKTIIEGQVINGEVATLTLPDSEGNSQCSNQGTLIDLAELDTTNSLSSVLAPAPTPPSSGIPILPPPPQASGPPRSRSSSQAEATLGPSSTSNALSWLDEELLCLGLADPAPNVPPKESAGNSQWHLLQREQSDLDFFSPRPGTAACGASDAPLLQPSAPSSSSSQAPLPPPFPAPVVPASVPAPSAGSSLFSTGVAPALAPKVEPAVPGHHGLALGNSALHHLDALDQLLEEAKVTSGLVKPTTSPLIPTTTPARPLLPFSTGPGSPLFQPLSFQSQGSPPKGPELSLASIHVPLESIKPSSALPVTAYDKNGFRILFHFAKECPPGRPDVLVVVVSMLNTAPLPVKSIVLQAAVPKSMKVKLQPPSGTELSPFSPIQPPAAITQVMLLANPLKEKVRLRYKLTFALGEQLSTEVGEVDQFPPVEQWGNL

[2] = molecular target: Arf1 (endogenous, WT-MEFs) (mouse (endogenous in WT-MEFs)) (UniProt P84078); test: pull-down

Row | Substance | binding [1] | binding [2]
1 | Arf1 (endogenous, T24 bladder cancer cells) (from UniProt P84077 1-181) | binds | 
2 | Arf1 (endogenous, WT-MEFs) (from UniProt P84078 1-181) | binds | 
3 | KIF5B (endogenous, WT-MEFs) (from UniProt Q61768 1-963) |  | binds
